At least one structure is not confirmed: it was looked up by name or label, or the drawing left a doubt.
Experiment: Storage stability of tazobactam crystals in sealed test tubes (Test Example 1)
Assay type: physicochemical
Conditions: 10 g in sealed test tubes, stored for 1 year at room temperature (fluctuated between 10 to 34° C.)

Structure (SMILES)	Purity of the tazobactam crystals after storage [%]
CC1(Cn2ccnn2)C(C(=O)O)N2C(=O)CC2S1(=O)=O (centres unmarked) [Example 1, 2-methyl-2-triazolylmethylpenam-3-carboxylic acid S,S-dioxide]	100
CC1(Cn2ccnn2)C(C(=O)O)N2C(=O)CC2S1(=O)=O (centres unmarked) [Reference Example 1, 2-methyl-2-triazolylmethylpenam-3-carboxylic acid S,S-dioxide]	95

Source: US20040162277A1, “Anhydrous crystal of beta-lactam compound and method for preparation thereof” (priority 2001, published 2004)
